Reference: PubChem BioAssay AID652243 (Drosophila RNAi Screening Center, 2013)
The screen tested about 24,000 reagents; this is a random part of those with a known target gene and a result. Over the whole deposit, 246 (1%) are marked active. 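Plates not normalised; calls are printed but the firefly/Renilla ratio behind them is not deposited; fold cut for lowering reported inconsistently.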 Raw values are not corrected between plates. Entries without a mark were called inactive. Reagents against one gene are numbered here. Not given: the amount of reagent.

Screen: 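Fly genes required for human androgen receptor driven transcription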 (primary screen)
System: Drosophila S2R+ cells
Reagents: long dsRNA against Drosophila genes
Duration: 72 h (48 h, then 24 h hormone)
Conditions: synthetic androgen R1881 at 10 nM for 24 h
Detection: 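Firefly light from an androgen-responsive reporter and Renilla control light per well, raw and unnormalised, for each of two replicates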
Direction: firefly reporter light: higher = more light from androgen-responsive reporter; Renilla control light: higher = more constitutive control signal (cell number, transfection)
Call rule: 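Hit when the log firefly-to-Renilla ratio dropped or increased by a fixed fold versus the mean of GFP or LacZ controls across duplicate plates; lowering cut given as 1.5 and as 3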
Calls: active = hit: reporter lowered or raised; inactive = no hit

With CG32121, what does the deposit list?
firefly reporter light, replicate 1: 90148; firefly reporter light, replicate 2: 1.35e5; Renilla control light, replicate 1: 2.02e5; Renilla control light, replicate 2: 1.66e5

Which result is listed for Sdb (SAXO downstream of blistered) #1?
firefly reporter light, replicate 1: 78257; firefly reporter light, replicate 2: 1.03e5; Renilla control light, replicate 1: 1.63e6; Renilla control light, replicate 2: 1.63e6

For Sdb (SAXO downstream of blistered) #2, how do the results read?
firefly reporter light, replicate 1: 1.44e5; firefly reporter light, replicate 2: 1.87e5; Renilla control light, replicate 1: 2.96e6; Renilla control light, replicate 2: 2.96e6

How did the screen score Sdb (SAXO downstream of blistered) #3?
firefly reporter light, replicate 1: 1.42e6; firefly reporter light, replicate 2: 8.83e5; Renilla control light, replicate 1: 2.82e6; Renilla control light, replicate 2: 1.95e6

Which result is listed for CG7320 #1?
firefly reporter light, replicate 1: 2.36e5; firefly reporter light, replicate 2: 1.54e5; Renilla control light, replicate 1: 2.33e6; Renilla control light, replicate 2: 1.73e6

How did the screen score CG7320 #2?
firefly reporter light, replicate 1: 3.36e5; firefly reporter light, replicate 2: 3.59e5; Renilla control light, replicate 1: 5.26e5; Renilla control light, replicate 2: 5.96e5

What is on record for Reps (RALBP1 associated Eps domain containing)?
firefly reporter light, replicate 1: 1.16e5; firefly reporter light, replicate 2: 1.30e5; Renilla control light, replicate 1: 1.16e6; Renilla control light, replicate 2: 1.20e6

Which result is listed for CG7567?
firefly reporter light, replicate 1: 2.05e5; firefly reporter light, replicate 2: 2.29e5; Renilla control light, replicate 1: 1.68e6; Renilla control light, replicate 2: 2.17e6

For CG8202, how do the results read?
firefly reporter light, replicate 1: 1.21e5; firefly reporter light, replicate 2: 1.78e5; Renilla control light, replicate 1: 1.83e6; Renilla control light, replicate 2: 2.32e6

With CG13919, what does the deposit list?
firefly reporter light, replicate 1: 94426; firefly reporter light, replicate 2: 61176; Renilla control light, replicate 1: 8.70e5; Renilla control light, replicate 2: 7.80e5

For mrt (martik) #1, how do the results read?
firefly reporter light, replicate 1: 1.21e5; firefly reporter light, replicate 2: 1.39e5; Renilla control light, replicate 1: 2.19e6; Renilla control light, replicate 2: 3.11e6

With mrt (martik) #2, what does the deposit list?
firefly reporter light, replicate 1: 6.21e5; firefly reporter light, replicate 2: 3.55e5; Renilla control light, replicate 1: 1.14e6; Renilla control light, replicate 2: 7.92e5

For Rh4 (Rhodopsin 4) #1, what does the deposit list?
firefly reporter light, replicate 1: 1.08e5; firefly reporter light, replicate 2: 1.27e5; Renilla control light, replicate 1: 5.45e5; Renilla control light, replicate 2: 7.68e5

What did the screen give for Rh4 (Rhodopsin 4) #2?
firefly reporter light, replicate 1: 3.91e5; firefly reporter light, replicate 2: 3.23e5; Renilla control light, replicate 1: 8.50e5; Renilla control light, replicate 2: 9.01e5

No new results follow: entries from further up.
CG7567 — firefly reporter light, replicate 1 = 2.05e5; firefly reporter light, replicate 2 = 2.29e5; Renilla control light, replicate 1 = 1.68e6; Renilla control light, replicate 2 = 2.17e6
CG8202 — firefly reporter light, replicate 1 = 1.21e5; firefly reporter light, replicate 2 = 1.78e5; Renilla control light, replicate 1 = 1.83e6; Renilla control light, replicate 2 = 2.32e6
